Source: patent US20230399361A1, “MACROCYCLIC PEPTIDES” (UNIVERSITY OF NOTRE DAME DU LAC, priority 2022, published 2023)
At least one peptide structure holds a part that was inferred or is arguable (an end, a ring closure or a residue). *1 amine or outer side, *2 acyl side, *3 side chain or, on linkers, in order; H or OH if unused. Where a SMILES comes first, the peptide text is derived from it. Bridges are numbered along the chain shown (N, C = ends). [ ]: non-standard residue; d: D form. X3 = CC(C)[C@@H](C(=O)[*:2])N(N)[*:1]; mXylylene = c1cc(C[*:1])cc(C[*:2])c1

Chains of the proteins cited; added tags and fusions are not shown. Residues count along the entry.
UniProt P10636, 1-383 isoform P10636-6 P243L: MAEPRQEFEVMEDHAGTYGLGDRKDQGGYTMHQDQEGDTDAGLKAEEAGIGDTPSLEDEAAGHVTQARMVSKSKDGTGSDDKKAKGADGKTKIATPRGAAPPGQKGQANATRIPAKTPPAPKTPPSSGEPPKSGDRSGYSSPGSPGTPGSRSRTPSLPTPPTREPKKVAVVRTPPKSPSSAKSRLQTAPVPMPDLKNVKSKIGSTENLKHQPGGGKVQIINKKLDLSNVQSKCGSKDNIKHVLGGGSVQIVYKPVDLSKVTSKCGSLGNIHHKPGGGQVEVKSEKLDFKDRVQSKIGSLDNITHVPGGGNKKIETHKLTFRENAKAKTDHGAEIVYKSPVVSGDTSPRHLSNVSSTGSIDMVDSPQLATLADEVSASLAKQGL

What was measured:
tauP301L [1] = target: T1, tauP301L (Homo sapiens, UniProt P10636, P618L); assay: ThT fluorescence aggregation assay of recombinant tauP301L; format: biochemical; details: 10 mM compound (so in the source), tauP301L 5 with heparin, 2 days
T1 construct: we expressed and purified full-length tau featuring a P301L mutation; His6 (N); made in house; host or cells: E. coli BL21 (DE3)
From the text: NAP Tau Mimics Inhibit Tau Fibrilization In Vitro. We chose thioflavin T (ThT), an amyloid specific fluorescent dye that binds to β-sheet assemblies, to first evaluate the effect of NAPs on recombinant tau aggregation. For these studies, we expressed and purified full-length tau featuring a P301L mutation frequently observed in patients with frontotemporal dementia and Parkinsonism linked to chromosome 17 (FTDP-17). This missense mutation leads to local structure destabilization around the amyloid-forming region resulting in faster aggregation. […] Several other NAPs had no effect on endpoint ThT fluorescence or lacked consistent inhibition across repeated experiments. […] NaOAc buffer, as evidenced by intense ThT fluorescence after 48 h (FIG. 1B).
Inhibition of full-length tau aggregation by mxyl-NAPs in a ThT assay. […] TauP301L ([…]) aggregated upon incubation with heparin over the course of 2 days, leading to high ThT fluorescence. […]
ThT Fluorescence Aggregation Assay. […] The plate was then sealed with a clear sealing film and allowed to incubate at 37° C. with continuous shaking in a Biotek Synergy H1 microplate reader. An automated method was used to carry out ThT fluorescence measurements at an excitation wavelength of 444 nm and an emission wavelength of 485 nm at an interval of every 5 min for 48 h. […]

[2] = Self-aggregation of peptides alone by ThT fluorescence; format: physicochemical; details: macrocyclic NAPs alone
From the text: NAP Tau Mimics Inhibit Tau Fibrilization In Vitro. We chose thioflavin T (ThT), an amyloid specific fluorescent dye that binds to β-sheet assemblies, to first evaluate the effect of NAPs on recombinant tau aggregation. For these studies, we expressed and purified full-length tau featuring a P301L mutation frequently observed in patients with frontotemporal dementia and Parkinsonism linked to chromosome 17 (FTDP-17). This missense mutation leads to local structure destabilization around the amyloid-forming region resulting in faster aggregation. Recombinant tauP301L aggregated in the presence of equimolar heparin sulfate (t1/2=6.5±0.4 h) starting with a very short 0.5 h lag phase, followed by a 24 h exponential growth phase. […] Compounds 2 and 4 are mono- and diaminated hexapeptides derived from the R2 PHF6* aggregation-prone sequence, whereas compounds 5, 6, 12, and 13 are all derived from the R3 PHF6 sequence. Several other NAPs had no effect on endpoint ThT fluorescence or lacked consistent inhibition across repeated experiments. […] NaOAc buffer, as evidenced by intense ThT fluorescence after 48 h (FIG. 1B).
Design and synthesis of aggregation-resistant backbone-aminated derivatives of mxyl-AD. The data above support the hypothesis that mxyl-AD mimetic macrocycle can engage in native-like hydrophobic cross-b interactions as well as edge-to-edge H-bonds along the fibril axis. […]

tauP301L [3] = target: T1, tauP301L; assay: Transmission electron microscopy of heparin-induced tauP301L fibrils; format: biochemical; details: 5 mM tauP301L, 10 mM compound (so in the source)
Procedure: This is consistent with previous reports showing that the endpoint ThT fluorescence and fibrilization lag time for full-length tau are particularly resistant to perturbation by inhibitors. […] To confirm the effect of NAPs on the growth of mature tau fibrils, we used transmission electron microscopy (TEM) to visualize the morphology and maturity of fibrillar species. Heparin-induced tauP301L fibrils were allowed to grow over 96 h in the presence or absence of inhibitors. Untreated tauP301L afforded large, helical, and amyloid-like filamentous fibrils.
Inhibition of full-length tau fibrilization by mxyl-NAPs in TEM. To confirm the results from ThT assays, we used TEM to visualize tauP301L fibrils in the absence or presence of synthesized NAPs. As expected, heparin-induced tauP301L formed dense networks of mature fibrils (FIG. 8).
Transmission Electron Microscopy. For analyzing fibrils by TEM, aggregation was carried out under conditions similar to the assay performed above but with ThT excluded and a final reaction volume of 100 μL. Samples were incubated in a microcentrifuge tube for 4 days at 37° C. with a mixing speed of 100 rpm. A 10 μL aliquot of the sample was then applied to 400-meshed formvar-/carbon-coated copper grids and negative-stained with 2% uranyl acetate. Micrographs were obtained on a JEOL 2011 transmission electron microscope at 200 kV.

CC[C@H](C)[C@@H]1NC(=O)[C@H](CCC(N)=O)NC(=O)[C@H](C(C)C)NC(=O)[C@@H](C)NC(=O)[C@H](Cc2c[nH]cn2)NC(=O)[C@H](CO)NC(=O)[C@@H](C)NC(=O)[C@H](CCCNC(=N)N)NC(=O)[C@H](Cc2ccccc2)NC(=O)[C@H]([C@@H](C)O)NC(=O)[C@H](CC(C)C)NC(=O)[C@H](CCCCN)NC(=O)[C@H](Cc2c[nH]cn2)NC(=O)[C@H]([C@@H](C)O)NC(=O)CNC(=O)[C@@H](NC(C)=O)CSCc2cccc(c2)CSC[C@@H](C(N)=O)NC(=O)CNC(=O)[C@H](CCCCN)NC(=O)[C@H](Cc2ccc(O)cc2)NC(=O)[C@H](C(C)C)N(N)C1=O [mxyl-NAP2] (Ac-CGTHKLTFR[dA]SH[dA]VQI[X3]YKGC-NH2; linker 1-21 via mXylylene)
ThT fluorescence of tauP301L (tauP301L [1]): significantly attenuated
self-aggregation as judged by ThT assay [2]: did not form aggregates
tauP301L fibrilization by TEM (tauP301L [3]): No fibrils were found
